In PMC8438024:
These are yes or no findings as the source states them, for the method shown. In cells and extracts the contact can be indirect. Some binding calls cover weakened binding; strength is not graded here.

By UniProt entry, the sequences of proteins in these tests, tags left out.
UniProt Q9UKV8: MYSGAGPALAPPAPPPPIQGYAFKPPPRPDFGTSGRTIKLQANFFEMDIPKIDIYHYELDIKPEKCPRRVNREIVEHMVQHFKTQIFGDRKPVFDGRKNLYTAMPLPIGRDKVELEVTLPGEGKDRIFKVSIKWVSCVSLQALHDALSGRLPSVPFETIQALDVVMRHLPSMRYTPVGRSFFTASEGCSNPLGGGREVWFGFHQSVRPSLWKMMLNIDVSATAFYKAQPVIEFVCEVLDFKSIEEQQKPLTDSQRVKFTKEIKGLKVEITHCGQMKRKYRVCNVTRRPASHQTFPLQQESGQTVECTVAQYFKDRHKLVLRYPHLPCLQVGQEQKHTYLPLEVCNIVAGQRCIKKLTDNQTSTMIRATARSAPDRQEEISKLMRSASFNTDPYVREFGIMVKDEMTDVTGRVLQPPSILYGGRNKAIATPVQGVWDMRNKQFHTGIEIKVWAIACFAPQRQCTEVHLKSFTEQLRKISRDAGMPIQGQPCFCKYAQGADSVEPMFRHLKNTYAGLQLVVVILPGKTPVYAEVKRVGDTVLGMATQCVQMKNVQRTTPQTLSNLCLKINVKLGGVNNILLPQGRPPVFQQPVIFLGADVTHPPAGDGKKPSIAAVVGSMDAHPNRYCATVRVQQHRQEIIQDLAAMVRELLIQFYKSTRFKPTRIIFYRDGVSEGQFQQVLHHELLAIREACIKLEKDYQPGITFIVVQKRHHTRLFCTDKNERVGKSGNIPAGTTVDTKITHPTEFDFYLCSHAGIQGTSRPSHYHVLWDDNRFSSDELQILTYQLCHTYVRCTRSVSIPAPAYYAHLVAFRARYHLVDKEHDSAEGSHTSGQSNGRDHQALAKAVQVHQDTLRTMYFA

Key:
[1] = target: T1, endogenous HOIL-1L (HeLa cells) (human (endogenous in HeLa)), Q9BYM8; test: co-IP; endogenous proteins, HeLa lysate, co-IP with anti-HOIL-1L antibody, WB; untreated or hypoxia for indicated times; RIPA lysis buffer; conditions: remark: other sources report otherwise
T1 chain: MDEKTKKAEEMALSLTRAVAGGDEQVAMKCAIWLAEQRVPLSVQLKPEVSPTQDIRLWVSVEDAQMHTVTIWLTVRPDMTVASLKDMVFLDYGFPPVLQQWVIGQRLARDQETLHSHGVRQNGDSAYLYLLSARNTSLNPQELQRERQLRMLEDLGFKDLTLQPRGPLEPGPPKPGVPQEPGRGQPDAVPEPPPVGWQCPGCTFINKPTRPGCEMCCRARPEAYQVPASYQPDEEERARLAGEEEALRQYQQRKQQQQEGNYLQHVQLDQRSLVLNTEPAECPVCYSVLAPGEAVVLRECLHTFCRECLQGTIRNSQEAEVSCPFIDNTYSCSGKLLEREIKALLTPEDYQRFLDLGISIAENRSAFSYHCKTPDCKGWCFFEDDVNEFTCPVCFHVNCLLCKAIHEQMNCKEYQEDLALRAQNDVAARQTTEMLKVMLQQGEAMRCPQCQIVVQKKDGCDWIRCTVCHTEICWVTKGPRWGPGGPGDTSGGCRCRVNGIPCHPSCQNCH

[2] = target: endogenous AGO2 (HeLa cells) (human (endogenous in HeLa)) (UniProt Q9UKV8); test: co-IP; endogenous proteins, HeLa lysate, co-IP with anti-AGO2 antibody, WB; normoxia or hypoxia; also stable HOIL-1L-knockdown HeLa cells; RIPA lysis buffer
[3] = target: T2, endogenous SHARPIN (HeLa cells) (human (endogenous in HeLa)), Q9H0F6; test: co-IP; endogenous proteins, HeLa lysate, co-IP with anti-SHARPIN antibody, WB; RIPA lysis buffer; conditions: remark: other sources report otherwise
T2 chain: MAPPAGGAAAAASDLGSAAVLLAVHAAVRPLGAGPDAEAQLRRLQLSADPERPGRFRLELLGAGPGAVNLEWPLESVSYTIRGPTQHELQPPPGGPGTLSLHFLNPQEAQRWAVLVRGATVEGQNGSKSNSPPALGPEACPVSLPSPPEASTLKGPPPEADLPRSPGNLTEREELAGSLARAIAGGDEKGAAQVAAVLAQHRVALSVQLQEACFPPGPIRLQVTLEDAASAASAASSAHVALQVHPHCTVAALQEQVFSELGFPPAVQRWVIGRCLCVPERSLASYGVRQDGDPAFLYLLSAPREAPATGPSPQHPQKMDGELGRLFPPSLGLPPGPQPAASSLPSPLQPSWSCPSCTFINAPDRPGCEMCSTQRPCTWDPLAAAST

B1: endogenous SHARPIN (HeLa cells), Q9H0F6 1-387 (protein)
chain: T2 chain
**Q.** Which binding [1] does the source give for B1 here?
**A.** Its binding is “binds”.

B2: endogenous SHARPIN (HeLa cells) (protein, UniProt Q9H0F6 1-387)
chain: T2 chain
**Q.** For B2, which binding [2] is on record?
**A.** Its binding is “binds”.

B3: endogenous HOIL-1L (HeLa cells), Q9BYM8-1 1-510 (protein)
chain: T1 chain
**Q.** How did the binding [3] turn out when B3 was run?
**A.** Its binding is “binds”.
